Hit rate of the full screen: of about 330,000 compounds, about 7,700 (2.3%) were called active. The inconclusive results got no clear call from the source; some entries with a clear call stand among them for comparison. The call rests on the fitted dose curve; in most records, active means well fitted inhibition curve with a large enough effect; inconclusive means small, poorly fitted or top-dose-only effect, or effect the other way; inactive means flat fitted curve, though single readings scatter. Potencies beside an inconclusive call are fits to weak or partial responses and may not hold up.
Experiment: qHTS screen for small molecules that inhibit ELG1-dependent DNA repair in human embryonic kidney (HEK293T) cells expressing luciferase-tagged ELG1; further: nearly all actives have a fitted effect of over 55% in size
Details: HEK293T ELG1-luciferase reporter, luminescence, 16 h, DNA damage induced by 5-fluorouridine; series mostly up to 46.1 µM
Outline: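 Reporter activity after DNA damage by 5-fluorouridine is monitored. Compound-treated cells incubate 16 hr at 37 °C, then ONE-Glo is added for 30 min before luminescence reading.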
Potency means the concentration at half of the fitted maximal effect.

Compound | Potency
CCC(SC1=N/C(=C/c2ccccc2)C(=O)N1c1ccccc1)C(=O)Nc1cc(C)on1 (configuration not stated) | inconclusive: 18.4 µM [inhibitor, partial curve, poor fit]
COc1ccccc1CN(C)C(=O)CN1CCN(CC(=O)Nc2ccccc2Cl)CC1 | inconclusive: 20.6 µM [inhibitor, partial curve, poor fit]
CCCc1cc(C(=O)N2CCCC(Cc3cccc(Cl)c3)(C(=O)OCC)C2)n(C)n1 (configuration not stated) | inconclusive: 5.17 µM [activator, full curve, poor fit]
COc1ccc(-c2cc(C(=O)NC3CC3)c3ccccc3n2)cc1 | inconclusive: 29.1 µM [activator, partial curve, poor fit]
CCc1ccc(CC2S/C(=C(\C#N)C(C)=O)NC2=O)cc1 (configuration not stated) | inactive
COCCCNC(=S)NC1CCCCC1 | inactive
O=C(CCS(=O)(=O)c1ccccc1)Nc1nc(-c2cccs2)cs1 | inconclusive: 20.6 µM [inhibitor, partial curve]
Cn1cc(/C=N\NC(=O)c2cccs2)c2ccccc21 | inconclusive: 23.1 µM [activator, partial curve]
CCS(=O)(=O)c1ccc(O)c(NC(=O)Nc2ccccc2)c1 | inactive
CC(=O)c1ccc(N2CCN(C(=S)Nc3cc(C)ccc3C)CC2)cc1 | inactive
Cn1cccc1/C=N/n1c(-c2ccc(Cl)cc2Cl)n[nH]c1=S | inactive
COc1ccccc1N1CCN(C(=S)NC(=O)/C=C/c2ccccc2)CC1 | inconclusive: 20.6 µM [activator, partial curve]
Cn1ccc(C(=O)N/N=C/c2c[nH]c3ccccc23)n1 | inconclusive: 18.3 µM [activator, partial curve]
CCN1Cc2cc(OC)ccc2-c2ccccc2S1(=O)=O | inactive
CCSc1nnc(NC(=O)/C=C/c2ccco2)s1 | inconclusive: 3.66 µM [activator, single point]
COc1ccc(NC(=O)CNC(=O)c2nn(-c3ccc(OC)c(Cl)c3)c(=O)c3ccccc23)c(OC)c1 | active: 5.8 µM
O=C(Nc1cc(S(=O)(=O)N2CCOCC2)ccc1Cl)c1cc2ccccc2o1 | inconclusive: 23.1 µM [inhibitor, single point]
Cc1ccc(Nc2cc(C)nc(-c3ccccc3)n2)cc1 | inconclusive: 16.4 µM [activator, partial curve]
Cc1ccc(S(=O)(=O)N2CCCCC2)cc1NC(=O)CSc1nnc(N)s1 | inactive
Cc1ccc(C(C)C)c(OCC(=O)NNC(=O)CC2OC(=O)c3ccccc32)c1 (configuration not stated) | inconclusive: 20.6 µM [activator, single point]
Cc1cc2cc(CN(CC3CCCO3)C(=S)NCc3ccco3)c(=O)[nH]c2cc1C (configuration not stated) | inconclusive: 20.6 µM [inhibitor, partial curve, poor fit]
CCc1ccc(S(=O)(=O)NCc2cn3ccccc3n2)s1 | inconclusive: 13 µM [inhibitor, partial curve]
O=c1oc(Nc2ccccc2F)nc2ccccc12 | inconclusive: 18.4 µM [activator, partial curve]
Cc1ccc(Cn2c(C)c3cnn(CC(=O)NC4CCCC4)c(=O)c3c2C)cc1 | inconclusive: 14.6 µM [activator, partial curve]

Compound | Potency
COc1cccc(/C=N/Nc2ccc([N+](=O)[O-])cn2)c1O | inconclusive: 0.517 µM [activator, partial curve, poor fit]
CN(C)CCNC(=O)CNC(=S)N(Cc1ccccc1)Cc1cccnc1 | inconclusive: 32.6 µM [activator, partial curve, poor fit]
O=C(CN(c1ccccc1)S(=O)(=O)c1ccccc1[N+](=O)[O-])NN=C1CCCCCCC1 | inconclusive: 29.1 µM [activator, single point]
O=C1COc2ccc(-c3n[nH]c(=O)c4ccccc34)cc2N1 | inactive
Cc1ccc(C(=O)NC(C)c2ccncc2)o1 (configuration not stated) | inconclusive: 18.3 µM [inhibitor, single point]
Cc1ccc(S(=O)(=O)CCC(=O)OCC(=O)Nc2cc(F)ccc2C)cc1 | inactive
C#CC[N+]1(CC#Cc2cccc(C)c2)CCCCC1 | inconclusive: 16.4 µM [inhibitor, partial curve, poor fit]
CCn1ncc(CNC(=O)c2cccc([N+](=O)[O-])c2)c1C | inactive
Cc1ccc(S(=O)(=O)N2CCCN(S(=O)(=O)c3ccc(C(F)(F)F)cc3)CC2)cc1 | inconclusive: 25.1 µM [activator, single point]
COc1ccccc1/C=C1/C(=O)ON=C1C | inconclusive: 20.6 µM [activator, single point]
O=C(Nc1ccc(N2CCOCC2)cc1)c1ccc2c(c1)OCO2 | inconclusive: 13 µM [activator, partial curve]
CCC(=O)Nc1nc2n(n1)C(c1ccc(OC)cc1)C=C(c1ccccc1)N2 (configuration not stated) | inactive
O=C(Nc1nnc(-c2ccncc2)o1)c1ccc(Br)s1 | active: 8.2 µM
Cc1cccc2nc(-c3ccccc3)nc(N[C@@H](CO)c3ccccc3)c12 | active: 9.2 µM
CC1CCC(NC(=O)c2ccc(S(C)(=O)=O)cc2)CC1 (configuration not stated) | inconclusive: 23.1 µM [activator, partial curve]
Cn1c(SCC(=O)Nc2ccccc2Cl)nnc1C1CC1 | inactive
CCN(CC)c1ncnc2ccc(Br)cc12 | inconclusive: 17.8 µM [inhibitor, single point]
COc1cc(OC)cc(-c2nnc(NC(=O)CCS(=O)(=O)c3ccc(F)cc3)o2)c1 | inactive
Cc1cc(-c2ccccc2)nc(N2CCN(c3ccccn3)CC2)n1 | inactive
CCCn1c(SCC(=O)N2CCN(C(C)=O)CC2)nc2sc3c(c2c1=O)CCC3 | inconclusive: 7.3 µM [inhibitor, partial curve]
O=C(NCCN1CCCC1)c1ccc(Br)cc1 | inactive
Cc1ccc(OCCCCNC2CCCCC2)c(C)c1 | inactive
Cc1ccc(OCc2csc(N)n2)cc1 | inconclusive: 18.3 µM [activator, partial curve]
Cc1ccc([N+](=O)[O-])c(OCc2ncc(Cl)n2C)c1 | inconclusive: 18.3 µM [activator, single point]

Compound | Potency
Cc1cnc(C(=O)OCC(=O)Nc2sc3c(c2C#N)CCC3)cn1 | inactive
CCCCOc1ccc(NC(=O)[C@@H]2CCCN2C(=O)C2CCN(S(=O)(=O)c3ccc(C)cc3)CC2)cc1 | inconclusive: 16.4 µM [inhibitor, single point]
COc1ccc(Br)cc1CNC(=O)CCc1nc(-c2ccc(C)cc2)no1 | inactive
COc1ccc(C(=O)Sc2nncc3ccccc23)cc1 | inconclusive: 23.1 µM [activator, single point]
Cn1c(=O)c2c(nc(CN3CCN(Cc4ccccc4)CC3)n2Cc2cccc(Cl)c2)n(C)c1=O | active: 11.6 µM
COC(=O)c1cc(OC)c(OC)cc1NC(=O)CCNC(=O)c1ccco1 | inactive
Cc1cc(NCc2ccccn2)ccc1Br | inconclusive: 15.8 µM [activator, partial curve]
COc1ccc2cc(CN(CC3CCCO3)S(=O)(=O)c3ccc(C(C)=O)cc3)c(=O)[nH]c2c1 (configuration not stated) | inconclusive: 25.9 µM [activator, single point]
Cc1cnc(NC(=O)C2COc3ccccc3O2)s1 (configuration not stated) | inconclusive: 0.731 µM [activator, partial curve, poor fit]
Cc1cc(Cl)c(O)c(-n2nc3ccccc3n2)c1 | inconclusive: 23.1 µM [activator, partial curve]
c1ccc(CN2CCN(CCOCCOc3cccc4ccccc34)CC2)cc1 | active: 18.3 µM
CCCN1C(=O)/C(=C/c2cc(C)n(C)c2C)SC1=Nc1ccc(OCC)cc1 | inconclusive: 14.6 µM [activator, partial curve, poor fit]
Cc1ccc(-c2cc(-c3ccccc3)no2)c(O)c1 | inconclusive: 0.326 µM [activator, full curve]
CC(/C=C1\SC(=S)N(NC(=O)c2ccc(O)cc2)C1=O)=C\c1ccccc1 | inconclusive: 14.6 µM [activator, partial curve, poor fit]
O=C(Nc1nc2c(s1)CCCC2)c1ccc(N2C(=O)CCC2=O)cc1 | inconclusive: 13 µM [activator, partial curve]
CCSc1nncn1/N=C/c1ccc(OC)c(OC)c1 | inconclusive: 20.6 µM [activator, single point]
O=C(/C=C/Nc1ccccc1C(=O)O)c1cccs1 | inconclusive: 18.4 µM [activator, partial curve]
CCC1CCc2c(sc(NC(=O)c3cccnc3)c2C(N)=O)C1 (configuration not stated) | inconclusive: 16.4 µM [activator, partial curve, poor fit]
Cc1cccc(NC(=O)CS(=O)(=O)c2c[nH]c3ccccc23)c1C | inactive
Cc1c(NS(=O)(=O)c2cc(C(=O)NCc3ccco3)cc(Cl)c2Cl)c(=O)n(-c2ccccc2)n1C | inconclusive: 18.3 µM [inhibitor, partial curve, poor fit]
CCOC(=O)N1CCC(n2c(=S)[nH]c3ccccc3c2=O)CC1 | inactive
C=CCNC(=O)Nc1ccc2nc(C)sc2c1 | inconclusive: 29.1 µM [activator, single point]
O=C(OCCN1C(=O)c2cccc3c(N4CCOCC4)ccc(c23)C1=O)c1cccc(Cl)c1 | inconclusive: 20.6 µM [inhibitor, partial curve]
O=c1[nH]c(SCc2nc3ccccc3n2Cc2ccccc2)nc2ccccc12 | inconclusive: 16.4 µM [inhibitor, partial curve, poor fit]

A stretch taken from the entries so far, as a working copy:
Compound | Potency
COc1ccc2cc(CN(CC3CCCO3)S(=O)(=O)c3ccc(C(C)=O)cc3)c(=O)[nH]c2c1 (configuration not stated) | inconclusive: 25.9 µM [activator, single point]
Cc1cnc(NC(=O)C2COc3ccccc3O2)s1 (configuration not stated) | inconclusive: 0.731 µM [activator, partial curve, poor fit]
Cc1cc(Cl)c(O)c(-n2nc3ccccc3n2)c1 | inconclusive: 23.1 µM [activator, partial curve]

Reference: PubChem BioAssay AID504467 (National Center for Advancing Translational Sciences (NCATS), 2011)
